Experimental findings from patent US20030087319A1 are described below.

Protein sequences, listed by entry. Tags and fused reporters are not part of them.
UniProt O15392: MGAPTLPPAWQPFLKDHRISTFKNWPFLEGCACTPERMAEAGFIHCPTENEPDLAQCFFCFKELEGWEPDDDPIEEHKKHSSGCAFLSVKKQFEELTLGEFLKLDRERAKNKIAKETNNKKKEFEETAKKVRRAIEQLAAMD

The target of this assay is T1, recombinant active caspase-3 (PharMingen) (UniProt P42574).
T1 sequence (looked up): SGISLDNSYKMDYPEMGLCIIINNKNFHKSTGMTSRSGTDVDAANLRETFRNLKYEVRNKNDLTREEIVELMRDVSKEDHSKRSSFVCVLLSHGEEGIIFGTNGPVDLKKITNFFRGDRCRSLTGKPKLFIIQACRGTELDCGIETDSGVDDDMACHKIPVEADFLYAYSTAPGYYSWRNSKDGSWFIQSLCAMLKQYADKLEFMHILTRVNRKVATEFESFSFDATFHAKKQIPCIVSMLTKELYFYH
In words: in vitro binding, 35S-labeled survivin with recombinant active caspase-3, immunoprecipitation with caspase-specific antibody, SDS-PAGE, autoradiography.

These are yes or no findings as the source states them, for the method shown. Some entries that bind do so weakly or less than the wild type.

“survivin (35[S]-methionine-labeled, in vitro translated) (from UniProt O15392 1-142)”: the binding result is “binds”.
